Laboratory results published in the supplement of paper PMC11732987, “Enantioselective OTUD7B fragment discovery through chemoproteomics screening and high-throughput optimisation” (Communications Chemistry, 2025).
The other results are listed elsewhere or left out. The data scatter; read single values as rough.

Sequences of proteins named here, by UniProt entry; tags and fusion partners are left off. A change or cut given only in a name is not applied to a line headed by its entry. Residues count along the entry.
UniProt O43143: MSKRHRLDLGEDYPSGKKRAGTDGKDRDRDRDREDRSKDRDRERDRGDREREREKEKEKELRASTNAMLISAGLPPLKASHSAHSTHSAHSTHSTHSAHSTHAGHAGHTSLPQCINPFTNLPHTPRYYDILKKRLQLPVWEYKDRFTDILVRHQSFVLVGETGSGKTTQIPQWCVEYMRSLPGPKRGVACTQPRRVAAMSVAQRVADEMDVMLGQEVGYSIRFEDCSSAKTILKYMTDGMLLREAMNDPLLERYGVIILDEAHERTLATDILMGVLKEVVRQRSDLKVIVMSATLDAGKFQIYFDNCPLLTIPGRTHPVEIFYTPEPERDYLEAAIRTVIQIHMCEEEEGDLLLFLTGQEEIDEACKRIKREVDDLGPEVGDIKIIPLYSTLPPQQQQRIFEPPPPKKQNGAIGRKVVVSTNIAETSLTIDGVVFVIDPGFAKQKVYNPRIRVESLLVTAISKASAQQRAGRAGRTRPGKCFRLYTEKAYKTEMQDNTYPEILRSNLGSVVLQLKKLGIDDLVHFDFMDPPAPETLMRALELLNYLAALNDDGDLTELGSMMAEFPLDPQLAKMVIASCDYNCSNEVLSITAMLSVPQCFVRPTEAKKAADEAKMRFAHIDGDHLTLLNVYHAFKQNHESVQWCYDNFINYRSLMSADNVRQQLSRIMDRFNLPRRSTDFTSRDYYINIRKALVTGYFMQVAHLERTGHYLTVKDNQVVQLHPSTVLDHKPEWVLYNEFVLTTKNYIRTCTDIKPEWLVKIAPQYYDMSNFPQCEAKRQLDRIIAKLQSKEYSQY
UniProt Q9BTZ2, 65-92: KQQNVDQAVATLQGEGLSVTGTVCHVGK
UniProt Q92782, whole entry, looked up: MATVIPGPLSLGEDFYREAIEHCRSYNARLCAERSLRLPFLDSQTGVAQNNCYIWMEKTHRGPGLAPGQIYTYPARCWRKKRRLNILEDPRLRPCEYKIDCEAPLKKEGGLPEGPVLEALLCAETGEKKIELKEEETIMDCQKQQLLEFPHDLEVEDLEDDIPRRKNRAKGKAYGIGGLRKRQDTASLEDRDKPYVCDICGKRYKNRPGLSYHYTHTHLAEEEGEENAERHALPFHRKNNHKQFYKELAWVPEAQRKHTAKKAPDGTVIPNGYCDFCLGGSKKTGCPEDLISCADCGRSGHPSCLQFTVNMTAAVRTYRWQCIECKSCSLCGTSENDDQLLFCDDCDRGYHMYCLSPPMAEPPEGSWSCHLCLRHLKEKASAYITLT
UniProt Q9BU89, 184-206: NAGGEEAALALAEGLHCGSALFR
UniProt P26358: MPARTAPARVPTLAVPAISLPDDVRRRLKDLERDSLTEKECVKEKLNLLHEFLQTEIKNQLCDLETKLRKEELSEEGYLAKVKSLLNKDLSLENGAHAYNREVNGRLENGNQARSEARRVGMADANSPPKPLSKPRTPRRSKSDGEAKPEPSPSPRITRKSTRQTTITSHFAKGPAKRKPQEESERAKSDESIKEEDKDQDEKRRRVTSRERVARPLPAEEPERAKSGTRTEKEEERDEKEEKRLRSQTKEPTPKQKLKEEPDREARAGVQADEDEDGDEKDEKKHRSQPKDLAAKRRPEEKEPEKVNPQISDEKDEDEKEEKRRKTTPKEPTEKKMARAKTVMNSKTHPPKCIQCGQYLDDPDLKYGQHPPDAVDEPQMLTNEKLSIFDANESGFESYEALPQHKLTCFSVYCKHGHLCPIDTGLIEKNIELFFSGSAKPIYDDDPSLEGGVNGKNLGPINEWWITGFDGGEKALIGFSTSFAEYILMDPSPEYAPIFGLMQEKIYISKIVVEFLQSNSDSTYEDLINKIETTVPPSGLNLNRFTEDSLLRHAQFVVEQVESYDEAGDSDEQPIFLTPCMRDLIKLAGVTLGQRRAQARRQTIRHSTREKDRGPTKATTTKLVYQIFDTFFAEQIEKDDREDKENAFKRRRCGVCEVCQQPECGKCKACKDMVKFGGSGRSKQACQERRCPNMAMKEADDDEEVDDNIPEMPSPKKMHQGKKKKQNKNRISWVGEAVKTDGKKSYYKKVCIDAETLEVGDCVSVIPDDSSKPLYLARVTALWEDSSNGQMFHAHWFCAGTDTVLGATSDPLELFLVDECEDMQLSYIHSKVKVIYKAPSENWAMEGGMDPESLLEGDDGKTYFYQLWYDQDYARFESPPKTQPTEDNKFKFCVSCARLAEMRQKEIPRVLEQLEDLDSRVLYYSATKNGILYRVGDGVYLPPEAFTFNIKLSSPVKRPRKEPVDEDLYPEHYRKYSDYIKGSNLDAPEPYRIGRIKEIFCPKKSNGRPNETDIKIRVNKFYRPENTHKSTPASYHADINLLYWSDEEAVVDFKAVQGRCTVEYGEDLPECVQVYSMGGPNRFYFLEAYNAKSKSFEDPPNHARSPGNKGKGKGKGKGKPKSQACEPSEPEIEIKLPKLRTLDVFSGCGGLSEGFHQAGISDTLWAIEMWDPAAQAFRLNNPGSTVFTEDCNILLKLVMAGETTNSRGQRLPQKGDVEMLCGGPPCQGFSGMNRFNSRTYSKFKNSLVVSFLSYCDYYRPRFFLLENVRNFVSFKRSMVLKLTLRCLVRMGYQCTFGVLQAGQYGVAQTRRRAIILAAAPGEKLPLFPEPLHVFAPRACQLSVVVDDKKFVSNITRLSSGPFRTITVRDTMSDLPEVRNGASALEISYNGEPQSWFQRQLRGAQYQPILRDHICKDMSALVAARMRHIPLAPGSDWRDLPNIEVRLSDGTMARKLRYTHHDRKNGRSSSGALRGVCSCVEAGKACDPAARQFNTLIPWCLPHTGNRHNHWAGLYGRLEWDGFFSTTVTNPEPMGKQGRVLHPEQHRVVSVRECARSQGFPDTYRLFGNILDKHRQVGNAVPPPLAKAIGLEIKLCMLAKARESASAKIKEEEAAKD
UniProt Q8NDZ4, 155-174: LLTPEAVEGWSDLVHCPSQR
UniProt Q7L8W6: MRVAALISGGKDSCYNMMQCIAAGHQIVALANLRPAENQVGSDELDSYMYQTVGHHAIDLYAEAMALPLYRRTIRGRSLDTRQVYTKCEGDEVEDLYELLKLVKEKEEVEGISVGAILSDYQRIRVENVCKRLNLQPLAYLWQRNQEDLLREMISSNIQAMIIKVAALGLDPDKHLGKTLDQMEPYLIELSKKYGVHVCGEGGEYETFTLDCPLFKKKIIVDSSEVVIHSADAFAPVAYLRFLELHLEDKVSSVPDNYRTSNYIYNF
UniProt O75061: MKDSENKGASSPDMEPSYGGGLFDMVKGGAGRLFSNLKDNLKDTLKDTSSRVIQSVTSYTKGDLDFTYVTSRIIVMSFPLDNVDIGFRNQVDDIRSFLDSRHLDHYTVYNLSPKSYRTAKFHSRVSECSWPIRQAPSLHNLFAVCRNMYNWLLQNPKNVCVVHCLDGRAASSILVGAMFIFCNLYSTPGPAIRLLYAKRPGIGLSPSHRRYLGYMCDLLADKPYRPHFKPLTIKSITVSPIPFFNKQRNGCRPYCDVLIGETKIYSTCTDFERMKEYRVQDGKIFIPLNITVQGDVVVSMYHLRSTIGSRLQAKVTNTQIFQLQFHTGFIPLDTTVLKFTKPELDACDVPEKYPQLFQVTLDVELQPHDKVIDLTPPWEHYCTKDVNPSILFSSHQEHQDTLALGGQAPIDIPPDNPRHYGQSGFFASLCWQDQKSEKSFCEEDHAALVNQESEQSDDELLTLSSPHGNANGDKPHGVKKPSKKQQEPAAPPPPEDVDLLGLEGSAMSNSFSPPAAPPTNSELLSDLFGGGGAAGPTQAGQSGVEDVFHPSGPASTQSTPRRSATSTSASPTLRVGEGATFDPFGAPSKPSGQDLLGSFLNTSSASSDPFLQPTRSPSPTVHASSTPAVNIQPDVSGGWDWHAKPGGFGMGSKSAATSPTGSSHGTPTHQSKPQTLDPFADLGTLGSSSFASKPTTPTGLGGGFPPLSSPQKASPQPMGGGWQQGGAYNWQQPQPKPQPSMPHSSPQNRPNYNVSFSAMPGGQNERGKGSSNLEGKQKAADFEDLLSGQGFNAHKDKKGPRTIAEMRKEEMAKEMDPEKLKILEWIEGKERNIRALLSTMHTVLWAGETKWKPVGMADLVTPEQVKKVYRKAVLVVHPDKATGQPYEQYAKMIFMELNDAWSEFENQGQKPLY
UniProt Q8IYB7, 201-222: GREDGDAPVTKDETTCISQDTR
UniProt Q7Z478: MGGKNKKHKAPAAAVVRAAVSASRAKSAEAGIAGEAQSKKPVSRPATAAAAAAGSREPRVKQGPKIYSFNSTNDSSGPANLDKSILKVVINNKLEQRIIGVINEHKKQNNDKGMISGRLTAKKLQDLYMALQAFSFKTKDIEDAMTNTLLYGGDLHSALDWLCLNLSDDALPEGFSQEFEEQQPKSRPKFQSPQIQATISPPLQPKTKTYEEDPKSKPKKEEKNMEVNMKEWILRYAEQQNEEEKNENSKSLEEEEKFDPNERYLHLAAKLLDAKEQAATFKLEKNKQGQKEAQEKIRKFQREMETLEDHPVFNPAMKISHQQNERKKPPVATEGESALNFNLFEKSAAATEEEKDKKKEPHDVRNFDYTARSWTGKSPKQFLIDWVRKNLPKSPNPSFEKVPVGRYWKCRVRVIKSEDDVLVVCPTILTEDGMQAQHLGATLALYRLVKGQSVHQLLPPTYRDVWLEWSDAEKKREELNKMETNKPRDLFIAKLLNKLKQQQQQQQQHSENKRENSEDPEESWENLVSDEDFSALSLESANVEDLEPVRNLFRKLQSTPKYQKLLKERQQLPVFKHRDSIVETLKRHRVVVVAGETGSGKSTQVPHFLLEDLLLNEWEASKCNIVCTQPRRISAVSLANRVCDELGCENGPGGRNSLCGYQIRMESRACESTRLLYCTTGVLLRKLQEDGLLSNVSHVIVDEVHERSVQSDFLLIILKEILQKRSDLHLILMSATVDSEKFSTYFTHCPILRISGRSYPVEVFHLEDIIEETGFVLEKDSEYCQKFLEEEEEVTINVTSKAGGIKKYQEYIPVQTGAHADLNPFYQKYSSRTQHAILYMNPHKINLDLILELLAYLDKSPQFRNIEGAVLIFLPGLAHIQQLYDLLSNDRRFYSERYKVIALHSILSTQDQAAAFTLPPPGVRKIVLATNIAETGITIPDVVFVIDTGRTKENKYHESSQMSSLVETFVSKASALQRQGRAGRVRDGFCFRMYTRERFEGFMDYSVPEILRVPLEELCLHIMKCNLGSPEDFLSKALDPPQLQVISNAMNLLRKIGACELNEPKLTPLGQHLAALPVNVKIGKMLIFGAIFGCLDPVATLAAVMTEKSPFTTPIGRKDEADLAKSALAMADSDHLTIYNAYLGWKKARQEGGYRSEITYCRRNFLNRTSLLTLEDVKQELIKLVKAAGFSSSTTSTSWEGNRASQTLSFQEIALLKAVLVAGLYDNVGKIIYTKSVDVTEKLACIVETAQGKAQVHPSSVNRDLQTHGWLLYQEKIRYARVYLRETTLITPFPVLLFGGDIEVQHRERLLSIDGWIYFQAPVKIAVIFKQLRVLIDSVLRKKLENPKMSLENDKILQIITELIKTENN
UniProt Q9NVR5: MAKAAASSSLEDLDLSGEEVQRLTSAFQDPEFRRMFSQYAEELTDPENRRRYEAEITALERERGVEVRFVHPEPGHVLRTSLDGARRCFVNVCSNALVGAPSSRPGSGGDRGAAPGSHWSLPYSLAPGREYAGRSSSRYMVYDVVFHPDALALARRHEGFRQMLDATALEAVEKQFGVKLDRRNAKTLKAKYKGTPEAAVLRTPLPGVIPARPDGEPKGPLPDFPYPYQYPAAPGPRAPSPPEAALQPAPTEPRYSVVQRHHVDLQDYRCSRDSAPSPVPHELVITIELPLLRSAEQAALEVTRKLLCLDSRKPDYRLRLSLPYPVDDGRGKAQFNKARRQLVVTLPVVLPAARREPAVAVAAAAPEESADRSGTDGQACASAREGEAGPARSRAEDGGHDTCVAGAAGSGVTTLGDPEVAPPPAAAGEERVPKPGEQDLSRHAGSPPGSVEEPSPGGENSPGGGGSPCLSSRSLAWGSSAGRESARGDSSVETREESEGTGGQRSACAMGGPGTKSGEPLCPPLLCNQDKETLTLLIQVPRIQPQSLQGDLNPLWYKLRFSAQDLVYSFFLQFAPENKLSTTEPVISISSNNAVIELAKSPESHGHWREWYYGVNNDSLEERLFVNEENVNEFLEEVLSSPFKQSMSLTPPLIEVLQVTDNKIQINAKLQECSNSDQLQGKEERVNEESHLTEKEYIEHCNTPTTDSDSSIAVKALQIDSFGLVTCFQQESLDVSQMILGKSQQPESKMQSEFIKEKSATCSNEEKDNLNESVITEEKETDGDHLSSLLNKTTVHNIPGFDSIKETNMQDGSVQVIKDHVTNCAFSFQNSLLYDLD
UniProt Q96LJ7: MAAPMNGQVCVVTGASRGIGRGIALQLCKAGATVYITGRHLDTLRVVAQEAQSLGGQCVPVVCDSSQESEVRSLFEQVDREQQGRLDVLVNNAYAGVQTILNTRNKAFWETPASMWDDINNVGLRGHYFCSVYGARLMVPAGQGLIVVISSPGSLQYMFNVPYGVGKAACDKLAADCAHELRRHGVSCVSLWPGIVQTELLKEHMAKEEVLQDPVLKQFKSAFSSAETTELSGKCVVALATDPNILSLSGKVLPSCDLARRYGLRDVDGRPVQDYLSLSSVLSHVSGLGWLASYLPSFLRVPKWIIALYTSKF

Each target was assayed with ClCC(=O)N[C@@H]1CCCc2ccccc12 (assay: log2 mean competition ratio of IA-DTB cysteine labelling (DMSO/compound) (log2 ratio); higher = stronger cysteine engagement by compound). Settings: 50 µM; treatment time: 4 h; cell line lysate: HEK293T.
Protocol: (§1)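 IA-DTB competitive cysteine chemoproteomics in HEK293T RIPA lysate. Lysates were treated with compound 29 or 30 at 50 or 200 µM for 4 h, then IA-DTB (500 µM, 1 h), trypsin-digested, NeutrAvidin-enriched and analysed by diaPASEF. Competition ratio = intensity DMSO / intensity compound (n=4 treated, n=64 DMSO); binding: mean log2 CR ≥ 1 and p ≤ 0.05 plus QC filters. Target is the cysteine site.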
For DHX15 C750 (UniProt O43143), the “log2 mean competition ratio” value was -0.408.
With DHX32 C8 (UniProt Q7L7V1) the “log2 mean competition ratio” value was -0.25.
With DHX30 C309 (UniProt Q7L2E3) the “log2 mean competition ratio” value was -0.0379.
For DMXL1 C1352 (UniProt Q9Y485), the “log2 mean competition ratio” value was -0.0901.
With DICER1 C686 (UniProt Q9UPY3) the “log2 mean competition ratio” value was -0.08.
DHRS4 C88 (UniProt Q9BTZ2) was tested, and the “log2 mean competition ratio” value was -0.0785.
With DEPDC5 C1053 (UniProt O75140) the “log2 mean competition ratio” value was 0.267.
For DHX34 C917 (UniProt Q14147), the “log2 mean competition ratio” value was -0.153.
In the case of DPF1 C101 (UniProt Q92782), the “log2 mean competition ratio” value is reported as 0.348.
With DOHH C200 (UniProt Q9BU89) the “log2 mean competition ratio” value was 0.276.
In the case of DNMT1 C41 (UniProt P26358), the “log2 mean competition ratio” value is reported as -0.121.
With DOCK1 C595 (UniProt Q14185) the “log2 mean competition ratio” value was 0.208.
For DNAJC13 C1770 (UniProt O75165), the “log2 mean competition ratio” value was 0.103.
DIPK2A C170 (UniProt Q8NDZ4) was tested, and the “log2 mean competition ratio” value was 0.175.
With DLGAP5 C448 (UniProt Q15398) the “log2 mean competition ratio” value was 0.472.
In the case of DPH6 C130 (UniProt Q7L8W6), the “log2 mean competition ratio” value is reported as 0.202.
For DNAAF5 C555 (UniProt Q86Y56), the “log2 mean competition ratio” value was -0.19.
DENND4C C955 (UniProt Q5VZ89) was tested, and the “log2 mean competition ratio” value was -0.482.
For DPP9 C184 (UniProt Q86TI2), the “log2 mean competition ratio” value was -0.129.
In the case of DNAJC6 C128 (UniProt O75061), the “log2 mean competition ratio” value is reported as 0.0314.
In the case of DENR C132 (UniProt O43583), the “log2 mean competition ratio” value is reported as 0.44.
In the case of DHX30 C484 (UniProt Q7L2E3), the “log2 mean competition ratio” value is reported as 0.0042.
With DOCK9 C628 (UniProt Q9BZ29) the “log2 mean competition ratio” value was -0.353.
DENND4B C652 (UniProt O75064) was tested, and the “log2 mean competition ratio” value was -0.211.
In the case of DIPK2A C402 (UniProt Q8NDZ4), the “log2 mean competition ratio” value is reported as -0.0268.
For DENND4A C1579 (UniProt Q7Z401), the “log2 mean competition ratio” value was 0.114.
In the case of DNAJC11 C518 (UniProt Q9NVH1), the “log2 mean competition ratio” value is reported as -0.0176.
For DHX57 C571 (UniProt Q6P158), the “log2 mean competition ratio” value was 0.342.
DIS3L2 C216 (UniProt Q8IYB7) was tested, and the “log2 mean competition ratio” value was -0.227.
With DNM2 C424 (UniProt P50570) the “log2 mean competition ratio” value was 0.415.
DHX29 C990 (UniProt Q7Z478) was tested, and the “log2 mean competition ratio” value was -0.199.
In the case of DNM3 C453, the “log2 mean competition ratio” value is reported as -0.19.
With DPYSL3 C248 (UniProt Q14195) the “log2 mean competition ratio” value was -0.26.
With DNAJC13 C904 (UniProt O75165) the “log2 mean competition ratio” value was 0.0696.
With DIAPH3 C558 (UniProt Q9NSV4) the “log2 mean competition ratio” value was -0.0828.
For DNAAF2 C762 (UniProt Q9NVR5), the “log2 mean competition ratio” value was 0.0154.
With DHRS1 C10 (UniProt Q96LJ7) the “log2 mean competition ratio” value was -0.325.

Same assay, conditions: 200 µM; treatment time: 4 h; cell line lysate: HEK293T
With DHX15 C750 (UniProt O43143) the “log2 mean competition ratio” value was 0.117.
With DHX32 C8 (UniProt Q7L7V1) the “log2 mean competition ratio” value was 0.0591.
With DHX30 C309 (UniProt Q7L2E3) the “log2 mean competition ratio” value was 0.11.
In the case of DMXL1 C1352 (UniProt Q9Y485), the “log2 mean competition ratio” value is reported as -0.262.
DICER1 C686 (UniProt Q9UPY3) was tested, and the “log2 mean competition ratio” value was -0.219.
For DHRS4 C88 (UniProt Q9BTZ2), the “log2 mean competition ratio” value was 0.0799.
In the case of DEPDC5 C1053 (UniProt O75140), the “log2 mean competition ratio” value is reported as 0.129.
DHX34 C917 (UniProt Q14147) was tested, and the “log2 mean competition ratio” value was 0.161.
DPF1 C101 (UniProt Q92782) was tested, and the “log2 mean competition ratio” value was 0.214.
For DOHH C200 (UniProt Q9BU89), the “log2 mean competition ratio” value was -0.0541.
For DNMT1 C41 (UniProt P26358), the “log2 mean competition ratio” value was 0.0544.
In the case of DOCK1 C595 (UniProt Q14185), the “log2 mean competition ratio” value is reported as 0.00861.
In the case of DNAJC13 C1770 (UniProt O75165), the “log2 mean competition ratio” value is reported as -0.0328.
DIPK2A C170 (UniProt Q8NDZ4) was tested, and the “log2 mean competition ratio” value was 0.773.
In the case of DLGAP5 C448 (UniProt Q15398), the “log2 mean competition ratio” value is reported as 0.182.
For DPH6 C130 (UniProt Q7L8W6), the “log2 mean competition ratio” value was -0.0305.
For DNAAF5 C555 (UniProt Q86Y56), the “log2 mean competition ratio” value was -0.172.
In the case of DENND4C C955 (UniProt Q5VZ89), the “log2 mean competition ratio” value is reported as -0.12.
With DPP9 C184 (UniProt Q86TI2) the “log2 mean competition ratio” value was 0.0505.
DNAJC6 C128 (UniProt O75061) was tested, and the “log2 mean competition ratio” value was 0.126.
With DENR C132 (UniProt O43583) the “log2 mean competition ratio” value was 0.213.
In the case of DHX30 C484 (UniProt Q7L2E3), the “log2 mean competition ratio” value is reported as -0.0394.
DOCK9 C628 (UniProt Q9BZ29) was tested, and the “log2 mean competition ratio” value was 0.542.
DENND4B C652 (UniProt O75064) was tested, and the “log2 mean competition ratio” value was 0.27.
For DIPK2A C402 (UniProt Q8NDZ4), the “log2 mean competition ratio” value was 0.0215.
In the case of DENND4A C1579 (UniProt Q7Z401), the “log2 mean competition ratio” value is reported as 0.236.
In the case of DNAJC11 C518 (UniProt Q9NVH1), the “log2 mean competition ratio” value is reported as -0.105.
In the case of DHX57 C571 (UniProt Q6P158), the “log2 mean competition ratio” value is reported as -0.184.
In the case of DIS3L2 C216 (UniProt Q8IYB7), the “log2 mean competition ratio” value is reported as -0.105.
With DNM2 C424 (UniProt P50570) the “log2 mean competition ratio” value was -0.366.
DHX29 C990 (UniProt Q7Z478) was tested, and the “log2 mean competition ratio” value was 0.17.
For DNM3 C453, the “log2 mean competition ratio” value was -0.209.
In the case of DPYSL3 C248 (UniProt Q14195), the “log2 mean competition ratio” value is reported as -0.167.
DNAJC13 C904 (UniProt O75165) was tested, and the “log2 mean competition ratio” value was -0.467.
In the case of DIAPH3 C558 (UniProt Q9NSV4), the “log2 mean competition ratio” value is reported as -0.0953.
In the case of DNAAF2 C762 (UniProt Q9NVR5), the “log2 mean competition ratio” value is reported as -0.0859.
DHRS1 C10 (UniProt Q96LJ7) was tested, and the “log2 mean competition ratio” value was 0.175.

What follows are targets tested with ClCC(=O)N[C@H]1CCCc2ccccc12 in the same assay as above. Settings: 50 µM; treatment time: 4 h; cell line lysate: HEK293T.
Protocol: as §1
For DHX15 C750 (UniProt O43143), the “log2 mean competition ratio” value was -0.888.
DHX32 C8 (UniProt Q7L7V1) was tested, and the “log2 mean competition ratio” value was 0.122.
With DHX30 C309 (UniProt Q7L2E3) the “log2 mean competition ratio” value was -0.179.
With DMXL1 C1352 (UniProt Q9Y485) the “log2 mean competition ratio” value was -0.303.
In the case of DICER1 C686 (UniProt Q9UPY3), the “log2 mean competition ratio” value is reported as -0.0166.
With DHRS4 C88 (UniProt Q9BTZ2) the “log2 mean competition ratio” value was 0.677.
With DEPDC5 C1053 (UniProt O75140) the “log2 mean competition ratio” value was 0.0203.
DHX34 C917 (UniProt Q14147) was tested, and the “log2 mean competition ratio” value was -0.258.
With DPF1 C101 (UniProt Q92782) the “log2 mean competition ratio” value was 0.0453.
With DOHH C200 (UniProt Q9BU89) the “log2 mean competition ratio” value was 0.175.
For DNMT1 C41 (UniProt P26358), the “log2 mean competition ratio” value was 0.113.
In the case of DOCK1 C595 (UniProt Q14185), the “log2 mean competition ratio” value is reported as -0.0317.
For DNAJC13 C1770 (UniProt O75165), the “log2 mean competition ratio” value was 0.0354.
In the case of DIPK2A C170 (UniProt Q8NDZ4), the “log2 mean competition ratio” value is reported as -0.182.
DLGAP5 C448 (UniProt Q15398) was tested, and the “log2 mean competition ratio” value was 0.512.
For DPH6 C130 (UniProt Q7L8W6), the “log2 mean competition ratio” value was 0.488.
With DNAAF5 C555 (UniProt Q86Y56) the “log2 mean competition ratio” value was 0.71.
With DENND4C C955 (UniProt Q5VZ89) the “log2 mean competition ratio” value was -0.52.
For DPP9 C184 (UniProt Q86TI2), the “log2 mean competition ratio” value was -0.176.
For DNAJC6 C128 (UniProt O75061), the “log2 mean competition ratio” value was -0.187.
In the case of DENR C132 (UniProt O43583), the “log2 mean competition ratio” value is reported as -0.139.
DHX30 C484 (UniProt Q7L2E3) was tested, and the “log2 mean competition ratio” value was -0.148.
For DOCK9 C628 (UniProt Q9BZ29), the “log2 mean competition ratio” value was -0.629.
For DENND4B C652 (UniProt O75064), the “log2 mean competition ratio” value was -0.111.
For DIPK2A C402 (UniProt Q8NDZ4), the “log2 mean competition ratio” value was -0.405.
In the case of DENND4A C1579 (UniProt Q7Z401), the “log2 mean competition ratio” value is reported as -0.322.
For DNAJC11 C518 (UniProt Q9NVH1), the “log2 mean competition ratio” value was -0.245.
For DHX57 C571 (UniProt Q6P158), the “log2 mean competition ratio” value was 0.417.
With DIS3L2 C216 (UniProt Q8IYB7) the “log2 mean competition ratio” value was -0.241.
With DNM2 C424 (UniProt P50570) the “log2 mean competition ratio” value was 1.35.
With DHX29 C990 (UniProt Q7Z478) the “log2 mean competition ratio” value was 0.147.
DNM3 C453 was tested, and the “log2 mean competition ratio” value was 0.21.
For DPYSL3 C248 (UniProt Q14195), the “log2 mean competition ratio” value was 0.112.
For DNAJC13 C904 (UniProt O75165), the “log2 mean competition ratio” value was 0.0828.
For DIAPH3 C558 (UniProt Q9NSV4), the “log2 mean competition ratio” value was 0.18.
DNAAF2 C762 (UniProt Q9NVR5) was tested, and the “log2 mean competition ratio” value was 0.151.
For DHRS1 C10 (UniProt Q96LJ7), the “log2 mean competition ratio” value was 0.301.
